According to doi:10.1101/2021.08.26.457804:
No constants are given. Whether binding was seen depends on the method and setting. In cells and extracts the contact can be indirect. Some entries that bind do so weakly or less than the wild type. Where a sequence is shown, tags or fusion partners need not be part of it.

Biological target: T1, Myc-CASP4^C258A (human) (UniProt P49662)
T1 sequence: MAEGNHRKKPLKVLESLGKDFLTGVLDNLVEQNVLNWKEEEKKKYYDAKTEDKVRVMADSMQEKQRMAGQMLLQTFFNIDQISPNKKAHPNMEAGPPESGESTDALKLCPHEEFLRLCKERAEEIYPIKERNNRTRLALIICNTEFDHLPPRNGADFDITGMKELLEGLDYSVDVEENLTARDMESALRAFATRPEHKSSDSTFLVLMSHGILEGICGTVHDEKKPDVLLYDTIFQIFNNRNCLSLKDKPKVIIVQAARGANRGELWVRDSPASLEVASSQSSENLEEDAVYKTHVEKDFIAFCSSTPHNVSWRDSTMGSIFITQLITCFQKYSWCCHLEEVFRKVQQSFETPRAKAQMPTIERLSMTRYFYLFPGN
Assay: co-IP

B1: Flag-GSDMD^L192D (protein, UniProt P57764 1-484)
chain: MGSAFERVVRRVVQELDHGGEFIPVTSLQSSTGFQPYCLVVRKPSSSWFWKPRYKCVNLSIKDILEPDAAEPDVQRGRSFHFYDAMDGQIQGSVELAAPGQAKIAGGAAVSDSSSTSMNVYSLSVDPNTWQTLLHERHLRQPEHKVLQQLRSRGDNVYVVTEVLQTQKEVEVTRTHKREGSGRFSLPGATCDQGEGQGHLSQKKTVTIPSGSTLAFRVAQLVIDSDLDVLLFPDKKQRTFQPPATGHKRSTSEGAWPQLPSGLSMMRCLHNFLTDGVPAEGAFTEDFQGLRAEVETISKELELLDRELCQLLLEGLEGVLRDQLALRALEEALEQGQSLGPVEPLDGPAGAVLECLVLSSGMLVPELAIPVVYLLGALTMLSETQHKLLAEALESQTLLGPLELVGSLLEQSAPWQERSTMSLPPGLLGNSWGEGAPAWVLLDECGLELGEDTPHVCWEPQAQGRMCALYASLALLSGLSQEPH
  binding: binds
